# Test results taken from PubChem BioAssay AID1487 (National Center for Advancing Translational Sciences (NCATS), 2009).
# Some of the results follow. These are further read-outs of the screen, such as a control signal, another cell line or another target. No call is given for them. Compounds called inactive in the main read-out are mostly missing here. Words in brackets tell the shape of the fitted curve; partial curves, single points and poor fits give uncertain potencies.
# Test: qHTS Assay for Modulators of Lamin A Splicing
# Details: HeLa LMNA splicing GFP/RFP minigene ratio, 48 h
# Method in brief: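 S3 HeLa cells stably expressing lamin A-EGFP splicing minigene plus DsRed2, 600 cells/well, 48 h compound exposure at 37C. Laser-scanning cytometry; analysed as GFP (500-530 nm)/RFP (575-640 nm) total intensity ratio; 0.5% DMSO vehicle.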
# [1] = measured here: GFP splicing reporter channel
# [2] = measured here: RFP viability control channel
SMILES,AC50 [1],AC50 [2]
CC1Cc2ccccc2N1C(=O)CSc1nnc(Cn2nnc3ccccc32)n1C (configuration not stated),"15.8 µM [rising, partial curve, poor fit]",–
COC(=O)c1ccccc1NC(=O)COc1ccc(S(=O)(=O)NC(C)C)cc1,–,"0.00708 µM [falling, full curve, poor fit]"
COC(=O)c1cccc(S(=O)(=O)N2CCC(n3nnc4cc(F)ccc43)CC2)c1,"35.5 µM [rising, single point]","35.5 µM [rising, single point]"
COc1ccc(O)c(/C=N/Nc2nc(Nc3ccccc3)nc(-n3nc(C)cc3C)n2)c1,–,"35.5 µM [falling, single point]"
COc1cc(NC(=O)c2cc3ccccc3o2)c(OC)cc1Br,–,"1.12 µM [falling, partial curve]"
N/C(=N\OC(=O)Cc1ccc([N+](=O)[O-])cc1)c1ccccn1,"6.31 µM [falling, partial curve]",–
CC12CCC(=O)N1C(C(=O)OCC(=O)Nc1cccc(Br)c1)CS2 (configuration not stated),"7.94 µM [falling, full curve, poor fit]",–
CCOC(=O)C1CCCN(Cc2nc(N)nc(Nc3ccc(C)cc3)n2)C1 (configuration not stated),–,"14.1 µM [rising, single point]"
O=C(/C=C/c1ccccc1)N1CCN(c2ccc([N+](=O)[O-])c(N3CCOCC3)c2)CC1,–,"3.98 µM [rising, single point]"
Cc1ccc(S(=O)(=O)Nc2cccc(-c3ccc4nnc(C)n4n3)c2)s1,"6.31 µM [falling, full curve]",–
CCCc1nc2sc3c(c2c(=O)n1NC(=O)CCCl)CCCC3,"11.2 µM [falling, partial curve, poor fit]",–
CCN1C(=O)c2ccccc2Sc2ccc(NC(=O)Cc3ccc(OC)cc3)cc21,"2 µM [falling, full curve]",–
Cc1ccc(-n2c(C)cc(C(=O)COC(=O)c3c(C)noc3C)c2C)cc1,–,"12.6 µM [rising, partial curve]"
Cc1nn(-c2ccccc2)c2sc(C(=O)N3CCc4ccccc4C3)cc12,"11.2 µM [rising, partial curve]","11.2 µM [rising, single point]"
Cc1ccc(NC(=O)c2cccs2)cc1NC(=O)c1cccnc1,"2.82 µM [falling, partial curve, poor fit]","0.891 µM [falling, partial curve, poor fit]"
C[C@@]12CCC(OC(=O)c3ccccc3)CC1CCc1ccccc12 (some centres not stated),–,"15.8 µM [rising, single point]"
O=C(CN1CCC(n2nnc3cc(C(F)(F)F)ccc32)CC1)NCc1cccs1,"12.6 µM [rising, single point]","17.8 µM [rising, single point]"
O=C(Nc1cccc(Cl)c1)c1ccc(NCCCN2CCOCC2)c([N+](=O)[O-])c1,"0.0282 µM [falling, single point]","0.0178 µM [falling, partial curve]"
O=C(CCc1ccc(S(=O)(=O)NCc2ccccc2)cc1)NCc1ccco1,"35.5 µM [rising, single point]",–

SMILES,AC50 [1],AC50 [2]
NNC(=S)Nc1ccccc1Cl,–,"22.4 µM [falling, partial curve]"
COc1ccc(S(=O)(=O)N2CCN(C(=S)NC3CCCCC3)CC2)cc1,"3.16 µM [falling, partial curve, poor fit]",–
COc1cccc(NS(=O)(=O)c2cc3c4c(c2)C(C)C(=O)N4CCC3)c1 (configuration not stated),–,"0.282 µM [falling, partial curve, poor fit]"
CCc1ccc(NC(=O)c2c(C(=O)Nc3ccccc3)sc3nc(C)cc(=O)n23)cc1,"0.224 µM [rising, full curve, poor fit]",–
COc1ccc(-n2nnnc2SCC(=O)c2ccc3c(c2)OCCO3)c(OC)c1,"2.51 µM [rising, full curve]","2.51 µM [rising, full curve]"
COc1ccc(NC(=O)CCNS(=O)(=O)c2ccc3c(c2)CCN3C(=O)C2CC2)cc1Cl,"126 µM [falling, partial curve]",–
Cc1nc2ccc(S(=O)(=O)Nc3ccc(-c4nc5cccnc5s4)cc3)cc2s1,–,"22.4 µM [rising, single point]"
COc1ccc(-c2nnc(SCC(=O)Nc3cccc(Cl)c3C)nc2-c2ccc(OC)cc2)cc1,"0.0562 µM [falling, full curve, poor fit]",–
O=C(NNC(=O)c1ccc(SCC2CCCO2)c([N+](=O)[O-])c1)c1ccc(F)cc1 (configuration not stated),"15.8 µM [rising, single point]",–
CN(Cc1ccccc1)C(=O)CC(c1ccccc1)c1cc(Cl)ccc1O (configuration not stated),"25.1 µM [falling, single point]","31.6 µM [falling, single point]"
Cc1ccc(CNc2ncnc3c2cnn3-c2ccc(C)cc2C)cc1,–,"5.62 µM [falling, single point]"
NC1CCN(O)C1=O (configuration not stated),"0.01 µM [rising, full curve, poor fit]",–
COCC(C)n1c(C)cc(C(=O)COC(=O)c2oc3ccccc3c2C)c1C (configuration not stated),"1.12 µM [rising, partial curve, poor fit]","22.4 µM [rising, partial curve, poor fit]"
CC(C)COc1ccc(C(=O)OCCN2CCOCC2)c(O)c1,–,"12.6 µM [rising, single point]"
CN(Cc1ccccc1)CC(O)COc1ccc(CNCCCOc2cccnc2)cc1 (configuration not stated),"2.24 µM [falling, full curve]","2 µM [falling, full curve]"
C/C(=N\NC(=O)c1ccc(Cn2cc(Br)cn2)o1)c1cccc(NC(=O)C(C)(C)C)c1,"1.78 µM [rising, partial curve, poor fit]","35.5 µM [rising, single point]"
C[C@]12CCC(=O)C=C1[C@@H]1C[C@H]1[C@H]1[C@@H]3[C@@H]4C[C@H]4[C@@]4(CCC(=O)O4)[C@@]3(C)CC[C@@H]12,"2 µM [rising, full curve]","0.708 µM [rising, full curve, poor fit]"
CN(Cc1cccc(-n2cccn2)c1)Cc1cn(C)nc1-c1ccccc1F,–,"0.0316 µM [falling, full curve, poor fit]"
Cc1noc(C)c1CSc1ccccc1C(=O)N1CCN(c2ccccc2)CC1,–,"31.6 µM [rising, single point]"

SMILES,AC50 [1],AC50 [2]
CCN(CC)S(=O)(=O)c1ccc2[nH]cc(C(=O)NCCc3ccccc3)c(=O)c2c1,–,"4.47 µM [rising, full curve, poor fit]"
CCC(=O)c1ccc(N2CCN(C(=O)c3ccccc3)CC2)c(F)c1,–,"5.62 µM [falling, partial curve, poor fit]"
COc1ccc(-c2cc(C(F)(F)F)nc(NCc3cccnc3)n2)cc1,"22.4 µM [rising, single point]",–
CC(=O)C1=C(c2ccc(Br)cc2)N(C(C)=O)n2c(nnc2C2CCCCC2)S1,"35.5 µM [falling, single point]",–
Cc1nc2ccc(NS(=O)(=O)c3ccc(F)cc3)cc2s1,"11.2 µM [falling, partial curve]","7.94 µM [falling, partial curve]"
COCCNC(=O)c1cccc(Nc2nc(-c3ccccc3)c3cc(Cl)ccc3n2)c1,"6.31 µM [falling, single point]",–
O=C(O)c1ccc2c(c1)C(=O)N(c1cccc(C(=O)/C=C/c3ccccc3)c1)C2=O,"0.126 µM [falling, full curve, poor fit]",–
CCOC(=O)c1c(C)oc2nc(C)nc(NCc3cccc(Cl)c3)c12,–,"0.126 µM [falling, full curve, poor fit]"
COc1cc(NS(=O)(=O)c2ccc(C)cc2)c2ncccc2c1,–,"15.8 µM [rising, single point]"
Cc1ccccc1Nc1nc2nonc2nc1N1CCOCC1,–,"0.447 µM [rising, full curve, poor fit]"
CC(=O)Nc1ccc(NC(=O)COc2ccccc2C(=O)Nc2cccc(Cl)c2Cl)cc1,"31.6 µM [falling, single point]",–
Cc1cccc(NC(=O)c2cccc(Cn3cc(Br)c([N+](=O)[O-])n3)c2)c1C,"14.1 µM [rising, partial curve]","14.1 µM [rising, partial curve]"
CN1C(=O)C2C(c3ccc(N(C)C)cc3)=NN(Cc3ccccc3)C2C1=O (configuration not stated),"0.01 µM [rising, full curve, poor fit]",–
COc1cc(C(=O)N/N=c2/sc3ccccc3n2C)cc(OC)c1OC,–,"35.5 µM [rising, single point]"
CN1CCN(C(=S)SCC(=O)Nc2nc(-c3ccccc3)c(-c3ccccc3)o2)CC1,–,"28.2 µM [rising, single point]"
COC(=O)c1ccc(NS(=O)(=O)c2cc(C)ccc2OC)cc1,–,"20 µM [rising, single point]"
CCOc1cc(-c2c(C#N)c(N)nc3c2CCc2ccccc2-3)ccc1O,–,"31.6 µM [rising, single point]"
O=c1[nH]c(CN2CCc3ccccc32)nc2scc(-c3cccs3)c12,"3.98 µM [falling, single point]","1.78 µM [falling, partial curve]"
O=c1[nH]c(CSc2ccccn2)nc2c1cnn2-c1ccccc1,"7.94 µM [rising, partial curve, poor fit]","14.1 µM [rising, single point]"

# Structures listed so far containing an NH in an aromatic ring (3):
SMILES,AC50 [1],AC50 [2]
CCN(CC)S(=O)(=O)c1ccc2[nH]cc(C(=O)NCCc3ccccc3)c(=O)c2c1,–,"4.47 µM [rising, full curve, poor fit]"
O=c1[nH]c(CN2CCc3ccccc32)nc2scc(-c3cccs3)c12,"3.98 µM [falling, single point]","1.78 µM [falling, partial curve]"
O=c1[nH]c(CSc2ccccn2)nc2c1cnn2-c1ccccc1,"7.94 µM [rising, partial curve, poor fit]","14.1 µM [rising, single point]"
